Reference: PMC4161973
Results are given in words; binding and its absence hold for the method and conditions named. In cells and extracts the contact can be indirect. Here binding means that the protein was enriched with, or labelled near, the bait; the list need not be complete.

Amino acid sequences for entries named in this document (tags omitted). A change or cut given only in a name is not applied to a line headed by its entry.
UniProt P39938: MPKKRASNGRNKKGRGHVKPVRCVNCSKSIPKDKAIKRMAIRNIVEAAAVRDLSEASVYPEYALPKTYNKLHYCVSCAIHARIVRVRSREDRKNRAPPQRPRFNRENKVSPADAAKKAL

Key:
Test in all cases: co-IP + affinity purification with mass spectrometry; tandem affinity purification of pre-ribosomal particles by TAP-tagged baits from yeast; Calmodulin-eluates analysed by Western with eS26 antibodies and by SRM-MS
[1] = molecular target: T1, Asc1-TAP (S. cerevisiae) (UniProt P38011)
T1 sequence: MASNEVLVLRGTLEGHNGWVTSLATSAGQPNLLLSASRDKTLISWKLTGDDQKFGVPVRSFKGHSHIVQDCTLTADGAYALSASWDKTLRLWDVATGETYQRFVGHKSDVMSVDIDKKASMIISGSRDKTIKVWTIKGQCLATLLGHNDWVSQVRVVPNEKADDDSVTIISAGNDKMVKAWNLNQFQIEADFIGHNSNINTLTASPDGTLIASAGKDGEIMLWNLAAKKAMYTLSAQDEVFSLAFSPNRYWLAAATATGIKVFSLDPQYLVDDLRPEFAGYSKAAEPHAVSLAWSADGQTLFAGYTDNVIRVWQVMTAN

[2] = molecular target: T2, Enp1-TAP (S. cerevisiae) (UniProt P38333)
T2 sequence: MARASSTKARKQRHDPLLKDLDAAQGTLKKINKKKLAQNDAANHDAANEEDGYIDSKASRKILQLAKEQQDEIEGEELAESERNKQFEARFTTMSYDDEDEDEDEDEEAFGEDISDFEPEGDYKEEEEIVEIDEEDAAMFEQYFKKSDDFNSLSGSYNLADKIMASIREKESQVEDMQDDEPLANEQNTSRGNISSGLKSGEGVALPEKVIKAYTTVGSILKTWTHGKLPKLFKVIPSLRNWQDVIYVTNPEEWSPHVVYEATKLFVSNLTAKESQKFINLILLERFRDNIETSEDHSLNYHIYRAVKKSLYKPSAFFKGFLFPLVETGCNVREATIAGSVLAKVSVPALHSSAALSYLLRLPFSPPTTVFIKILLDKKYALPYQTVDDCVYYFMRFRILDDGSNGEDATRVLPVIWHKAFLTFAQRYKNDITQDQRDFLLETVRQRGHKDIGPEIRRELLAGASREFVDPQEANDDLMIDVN

[3] = molecular target: T3, Noc4-TAP (S. cerevisiae) (UniProt Q06512)
T3 sequence: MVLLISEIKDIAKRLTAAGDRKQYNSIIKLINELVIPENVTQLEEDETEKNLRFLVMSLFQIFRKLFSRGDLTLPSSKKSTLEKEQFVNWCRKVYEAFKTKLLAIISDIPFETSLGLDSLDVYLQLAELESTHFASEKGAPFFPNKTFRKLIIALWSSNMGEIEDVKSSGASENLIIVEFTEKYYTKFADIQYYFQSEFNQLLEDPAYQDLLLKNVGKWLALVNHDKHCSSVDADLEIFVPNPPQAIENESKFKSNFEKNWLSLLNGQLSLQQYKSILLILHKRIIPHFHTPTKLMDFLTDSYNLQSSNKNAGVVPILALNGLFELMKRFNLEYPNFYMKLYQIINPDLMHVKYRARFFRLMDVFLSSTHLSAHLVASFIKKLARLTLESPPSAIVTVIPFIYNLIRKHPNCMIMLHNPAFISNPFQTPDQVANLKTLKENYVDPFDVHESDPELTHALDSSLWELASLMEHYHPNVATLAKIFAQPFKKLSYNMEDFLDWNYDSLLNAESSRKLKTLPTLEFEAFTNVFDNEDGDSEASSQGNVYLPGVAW

Measured: binding

eS26 (yeast Rps26), endogenous (from UniProt P39938)
binds: all assays above
